Holding throughout (assay): split reporter; split Venus: V1 (Venus residues 1-210) and V2 (residues 210-238) fusions in pcDNA3 co-transfected into HEK293 (20 ng PKR construct, 50 ng RPIA construct per well), fixed after 48 h, fluorescence microscopy
Test [1] addresses split Venus-tagged human Protein Kinase RNA-activated (PKR), kinase-dead point mutant K296R (human) (UniProt P19525).
In test [2] the target is split Venus-tagged human Ribose 5-Phosphate Isomerase A (RPIA) (human) (UniProt P49247).
The target of test [3] is split Venus-tagged human Protein Kinase RNA-activated (PKR), wild type (human) (UniProt P19525).
In test [4] the target is split Venus-tagged human Ribose 5-Phosphate Isomerase A (RPIA) (human) (UniProt P49247). The source holds these as a separate data set.

Protein sequences, listed by entry. Tags and fused reporters are not part of them. Lines headed by an entry give the natural chain unless they say otherwise; changes in a name come on top.
UniProt P19525: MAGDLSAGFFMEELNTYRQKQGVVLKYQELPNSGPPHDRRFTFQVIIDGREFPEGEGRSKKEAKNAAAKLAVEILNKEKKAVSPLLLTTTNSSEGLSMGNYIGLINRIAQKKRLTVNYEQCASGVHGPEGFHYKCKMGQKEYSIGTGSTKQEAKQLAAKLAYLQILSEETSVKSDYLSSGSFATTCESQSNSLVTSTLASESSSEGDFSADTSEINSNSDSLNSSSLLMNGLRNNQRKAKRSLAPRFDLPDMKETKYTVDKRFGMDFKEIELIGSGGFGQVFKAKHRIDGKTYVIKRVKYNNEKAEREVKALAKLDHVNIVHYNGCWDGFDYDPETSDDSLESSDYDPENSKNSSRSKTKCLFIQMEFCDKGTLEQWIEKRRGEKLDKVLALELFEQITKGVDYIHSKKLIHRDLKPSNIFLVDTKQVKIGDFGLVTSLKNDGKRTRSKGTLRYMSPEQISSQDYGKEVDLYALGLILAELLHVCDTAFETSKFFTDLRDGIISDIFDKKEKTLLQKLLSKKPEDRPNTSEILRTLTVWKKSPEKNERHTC
UniProt P49247: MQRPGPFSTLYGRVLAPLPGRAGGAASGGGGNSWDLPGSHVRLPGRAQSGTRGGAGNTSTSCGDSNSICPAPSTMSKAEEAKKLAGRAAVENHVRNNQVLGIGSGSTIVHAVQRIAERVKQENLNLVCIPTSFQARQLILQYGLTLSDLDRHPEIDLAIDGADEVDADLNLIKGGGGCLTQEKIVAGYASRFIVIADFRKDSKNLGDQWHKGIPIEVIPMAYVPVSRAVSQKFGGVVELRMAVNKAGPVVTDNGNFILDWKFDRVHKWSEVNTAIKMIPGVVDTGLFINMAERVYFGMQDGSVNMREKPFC

Where two headings read alike, the source gives them in different places. Results are given in words; binding and its absence hold for the method and conditions named. Binding seen in cells or lysates may run through a third protein. Some binding calls cover weakened binding; strength is not graded here. For some of these results: Where a sequence is shown, tags or fusion partners need not be part of it.

Take “split Venus-tagged human Ribose 5-Phosphate Isomerase A (RPIA) (from UniProt P49247 1-311) (enzyme)”: the binding entry in test [1], in test [2] and in test [3] was “binds” throughout.

B1: split Venus-tagged E. coli Ribose 5-phosphate isomerase (RpiA) (enzyme, UniProt P0A7Z0 1-219)
chain: MTQDELKKAVGWAALQYVQPGTIVGVGTGSTAAHFIDALGTMKGQIEGAVSSSDASTEKLKSLGIHVFDLNEVDSLGIYVDGADEINGHMQMIKGGGAALTREKIIASVAEKFICIADASKQVDILGKFPLPVEVIPMARSAVARQLVKLGGRPEYRQGVVTDNGNVILDVHGMEILDPIAMENAINAIPGVVTVGLFANRGADVALIGTPDGVKTIVK
With B1, the binding result in test [4] is recorded as “binds”.
